The results in this text go back to the supplement of paper PMC12595434, “Development of retinoid nuclear receptor pathway antagonists through targeting aldehyde dehydrogenase 1A3” (iScience, 2025).

The chains behind the UniProt entries cited, without tags or fusion partners. Where a name states a change or a piece, a line headed by the entry shows the natural chain unless it says otherwise.
UniProt P42694: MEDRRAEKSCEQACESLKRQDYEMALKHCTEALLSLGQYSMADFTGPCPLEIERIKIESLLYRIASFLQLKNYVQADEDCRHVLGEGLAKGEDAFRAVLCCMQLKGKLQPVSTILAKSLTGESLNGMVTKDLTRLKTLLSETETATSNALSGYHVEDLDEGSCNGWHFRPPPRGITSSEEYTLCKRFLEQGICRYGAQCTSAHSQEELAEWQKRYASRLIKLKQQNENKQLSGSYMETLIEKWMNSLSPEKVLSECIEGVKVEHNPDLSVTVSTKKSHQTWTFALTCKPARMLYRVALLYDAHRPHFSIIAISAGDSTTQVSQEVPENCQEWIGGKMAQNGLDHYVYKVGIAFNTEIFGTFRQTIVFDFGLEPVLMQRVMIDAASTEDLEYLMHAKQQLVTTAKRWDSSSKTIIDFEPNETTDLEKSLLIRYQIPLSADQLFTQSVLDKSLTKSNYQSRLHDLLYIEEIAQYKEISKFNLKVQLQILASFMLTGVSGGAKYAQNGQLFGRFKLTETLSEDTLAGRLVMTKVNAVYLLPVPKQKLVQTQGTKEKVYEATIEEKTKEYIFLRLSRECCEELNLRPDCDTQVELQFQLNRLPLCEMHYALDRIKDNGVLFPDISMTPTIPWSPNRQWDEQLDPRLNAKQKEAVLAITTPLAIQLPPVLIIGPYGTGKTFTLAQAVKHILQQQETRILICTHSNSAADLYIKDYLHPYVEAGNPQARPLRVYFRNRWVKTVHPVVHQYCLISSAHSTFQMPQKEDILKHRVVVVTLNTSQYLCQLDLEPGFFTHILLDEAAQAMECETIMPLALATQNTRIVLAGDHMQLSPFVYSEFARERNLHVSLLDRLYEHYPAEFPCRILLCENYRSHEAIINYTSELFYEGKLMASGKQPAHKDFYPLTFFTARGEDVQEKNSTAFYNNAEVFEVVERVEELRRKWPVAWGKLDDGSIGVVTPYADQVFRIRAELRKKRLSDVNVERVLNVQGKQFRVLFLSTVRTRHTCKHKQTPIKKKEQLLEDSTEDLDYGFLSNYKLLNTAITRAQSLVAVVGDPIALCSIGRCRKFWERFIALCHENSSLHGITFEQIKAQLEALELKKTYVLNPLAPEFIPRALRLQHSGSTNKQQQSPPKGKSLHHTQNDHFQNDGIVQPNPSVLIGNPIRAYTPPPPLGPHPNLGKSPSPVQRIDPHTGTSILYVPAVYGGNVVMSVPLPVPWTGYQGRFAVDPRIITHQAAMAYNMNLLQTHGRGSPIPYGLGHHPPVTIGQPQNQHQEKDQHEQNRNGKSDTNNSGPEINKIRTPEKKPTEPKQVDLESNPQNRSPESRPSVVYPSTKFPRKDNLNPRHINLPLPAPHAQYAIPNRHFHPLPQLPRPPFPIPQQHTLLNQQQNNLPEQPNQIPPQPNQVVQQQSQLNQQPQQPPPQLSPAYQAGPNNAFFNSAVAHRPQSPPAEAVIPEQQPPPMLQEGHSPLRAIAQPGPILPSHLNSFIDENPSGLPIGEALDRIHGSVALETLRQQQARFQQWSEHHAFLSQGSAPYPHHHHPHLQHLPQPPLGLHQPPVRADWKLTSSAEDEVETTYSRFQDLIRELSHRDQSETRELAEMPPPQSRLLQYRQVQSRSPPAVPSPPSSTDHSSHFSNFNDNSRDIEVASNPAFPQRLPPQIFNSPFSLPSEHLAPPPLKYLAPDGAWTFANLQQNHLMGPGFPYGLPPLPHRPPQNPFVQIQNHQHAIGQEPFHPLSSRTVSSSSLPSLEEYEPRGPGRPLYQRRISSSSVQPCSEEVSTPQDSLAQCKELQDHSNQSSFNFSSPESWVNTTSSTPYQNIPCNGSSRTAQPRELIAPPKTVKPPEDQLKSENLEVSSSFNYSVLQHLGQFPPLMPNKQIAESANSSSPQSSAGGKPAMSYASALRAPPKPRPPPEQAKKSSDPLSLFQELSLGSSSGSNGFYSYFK
UniProt P50552: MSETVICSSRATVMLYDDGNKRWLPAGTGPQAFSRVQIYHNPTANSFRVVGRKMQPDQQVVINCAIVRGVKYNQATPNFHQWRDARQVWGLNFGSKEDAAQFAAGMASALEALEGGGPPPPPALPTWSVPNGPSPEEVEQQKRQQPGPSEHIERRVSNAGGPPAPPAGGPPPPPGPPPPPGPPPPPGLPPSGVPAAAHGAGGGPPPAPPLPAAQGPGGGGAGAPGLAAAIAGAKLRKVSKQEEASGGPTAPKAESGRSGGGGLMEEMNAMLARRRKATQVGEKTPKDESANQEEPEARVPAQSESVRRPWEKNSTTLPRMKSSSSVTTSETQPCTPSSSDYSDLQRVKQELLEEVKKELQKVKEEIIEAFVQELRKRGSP
UniProt P46199: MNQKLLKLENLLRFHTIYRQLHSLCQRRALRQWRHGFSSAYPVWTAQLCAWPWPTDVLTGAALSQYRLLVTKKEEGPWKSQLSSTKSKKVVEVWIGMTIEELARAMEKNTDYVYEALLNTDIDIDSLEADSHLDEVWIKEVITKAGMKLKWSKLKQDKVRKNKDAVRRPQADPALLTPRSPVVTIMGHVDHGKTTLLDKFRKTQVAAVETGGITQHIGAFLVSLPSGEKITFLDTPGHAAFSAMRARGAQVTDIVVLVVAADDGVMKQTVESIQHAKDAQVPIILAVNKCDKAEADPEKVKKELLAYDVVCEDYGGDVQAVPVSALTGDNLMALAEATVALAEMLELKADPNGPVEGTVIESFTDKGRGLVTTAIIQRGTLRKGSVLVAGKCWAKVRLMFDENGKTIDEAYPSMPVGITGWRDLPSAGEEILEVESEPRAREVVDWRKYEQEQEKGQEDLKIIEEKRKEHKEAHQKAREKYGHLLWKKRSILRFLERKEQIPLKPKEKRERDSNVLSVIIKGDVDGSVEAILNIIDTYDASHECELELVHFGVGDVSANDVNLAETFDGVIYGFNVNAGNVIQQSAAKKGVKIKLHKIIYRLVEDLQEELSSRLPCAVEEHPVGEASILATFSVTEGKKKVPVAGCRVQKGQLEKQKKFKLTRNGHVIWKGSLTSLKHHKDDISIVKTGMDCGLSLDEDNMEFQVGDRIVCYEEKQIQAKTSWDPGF
UniProt P51149, whole entry: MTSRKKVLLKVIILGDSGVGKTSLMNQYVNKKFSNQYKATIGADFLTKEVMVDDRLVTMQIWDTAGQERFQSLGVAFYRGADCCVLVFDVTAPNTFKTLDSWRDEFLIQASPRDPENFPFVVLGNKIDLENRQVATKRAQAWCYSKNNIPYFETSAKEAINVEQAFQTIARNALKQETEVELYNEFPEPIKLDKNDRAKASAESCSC
UniProt P50991: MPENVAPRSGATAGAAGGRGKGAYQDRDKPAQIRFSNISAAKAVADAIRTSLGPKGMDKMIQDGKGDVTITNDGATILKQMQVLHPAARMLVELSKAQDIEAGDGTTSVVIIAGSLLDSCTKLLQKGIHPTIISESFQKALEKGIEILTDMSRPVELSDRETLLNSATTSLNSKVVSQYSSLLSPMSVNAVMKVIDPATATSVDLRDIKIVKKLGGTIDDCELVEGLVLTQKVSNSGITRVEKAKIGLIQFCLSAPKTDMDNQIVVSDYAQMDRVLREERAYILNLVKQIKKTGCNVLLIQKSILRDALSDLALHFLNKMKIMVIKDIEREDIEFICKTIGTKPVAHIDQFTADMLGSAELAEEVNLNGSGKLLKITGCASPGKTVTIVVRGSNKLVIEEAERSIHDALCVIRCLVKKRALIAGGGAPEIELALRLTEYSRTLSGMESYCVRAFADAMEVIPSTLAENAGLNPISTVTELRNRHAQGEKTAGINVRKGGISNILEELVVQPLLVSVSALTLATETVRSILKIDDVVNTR
UniProt P48029: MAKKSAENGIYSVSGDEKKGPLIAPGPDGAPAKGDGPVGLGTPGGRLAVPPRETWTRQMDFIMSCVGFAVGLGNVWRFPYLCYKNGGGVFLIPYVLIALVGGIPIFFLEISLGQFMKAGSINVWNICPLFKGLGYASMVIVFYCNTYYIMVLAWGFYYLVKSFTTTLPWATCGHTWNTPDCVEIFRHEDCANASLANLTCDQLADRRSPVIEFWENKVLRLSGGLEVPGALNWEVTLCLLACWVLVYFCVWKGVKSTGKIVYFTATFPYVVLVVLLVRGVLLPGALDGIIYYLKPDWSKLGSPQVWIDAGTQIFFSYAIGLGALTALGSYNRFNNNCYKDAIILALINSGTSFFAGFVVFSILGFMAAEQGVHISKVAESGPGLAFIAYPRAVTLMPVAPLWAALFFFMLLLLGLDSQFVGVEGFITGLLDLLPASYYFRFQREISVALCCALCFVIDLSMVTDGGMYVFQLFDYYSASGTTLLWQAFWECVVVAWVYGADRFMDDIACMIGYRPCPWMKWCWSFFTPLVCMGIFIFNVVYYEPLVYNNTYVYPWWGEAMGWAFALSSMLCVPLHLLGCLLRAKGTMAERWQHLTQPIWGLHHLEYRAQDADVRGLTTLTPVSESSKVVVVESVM
UniProt P43487, whole entry: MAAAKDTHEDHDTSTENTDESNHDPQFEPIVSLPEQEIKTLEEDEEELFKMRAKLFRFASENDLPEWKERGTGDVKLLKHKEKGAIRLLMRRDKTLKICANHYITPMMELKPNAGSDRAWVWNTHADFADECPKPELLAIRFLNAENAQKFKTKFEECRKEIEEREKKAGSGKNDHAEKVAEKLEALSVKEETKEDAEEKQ
UniProt P49773: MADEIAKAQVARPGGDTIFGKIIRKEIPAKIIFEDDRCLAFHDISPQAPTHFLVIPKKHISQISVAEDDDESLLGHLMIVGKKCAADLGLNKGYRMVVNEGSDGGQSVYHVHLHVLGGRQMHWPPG
UniProt P41134: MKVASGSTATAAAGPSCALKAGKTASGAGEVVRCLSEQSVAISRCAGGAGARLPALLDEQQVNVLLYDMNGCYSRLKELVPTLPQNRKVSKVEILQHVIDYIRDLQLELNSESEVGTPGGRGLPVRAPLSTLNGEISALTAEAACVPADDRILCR
UniProt P40123, whole entry: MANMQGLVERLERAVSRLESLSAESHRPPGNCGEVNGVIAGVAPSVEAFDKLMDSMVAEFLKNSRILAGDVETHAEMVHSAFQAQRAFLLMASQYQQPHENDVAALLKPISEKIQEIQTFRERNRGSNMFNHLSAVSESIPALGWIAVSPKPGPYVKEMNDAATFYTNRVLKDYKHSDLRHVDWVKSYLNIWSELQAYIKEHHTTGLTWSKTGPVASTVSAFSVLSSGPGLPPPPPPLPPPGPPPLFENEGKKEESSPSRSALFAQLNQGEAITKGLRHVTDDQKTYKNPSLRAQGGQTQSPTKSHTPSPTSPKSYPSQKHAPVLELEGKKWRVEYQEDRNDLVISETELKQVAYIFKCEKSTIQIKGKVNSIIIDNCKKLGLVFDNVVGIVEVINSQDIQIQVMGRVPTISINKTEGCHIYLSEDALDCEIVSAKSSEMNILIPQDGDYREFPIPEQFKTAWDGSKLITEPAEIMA
UniProt P42338: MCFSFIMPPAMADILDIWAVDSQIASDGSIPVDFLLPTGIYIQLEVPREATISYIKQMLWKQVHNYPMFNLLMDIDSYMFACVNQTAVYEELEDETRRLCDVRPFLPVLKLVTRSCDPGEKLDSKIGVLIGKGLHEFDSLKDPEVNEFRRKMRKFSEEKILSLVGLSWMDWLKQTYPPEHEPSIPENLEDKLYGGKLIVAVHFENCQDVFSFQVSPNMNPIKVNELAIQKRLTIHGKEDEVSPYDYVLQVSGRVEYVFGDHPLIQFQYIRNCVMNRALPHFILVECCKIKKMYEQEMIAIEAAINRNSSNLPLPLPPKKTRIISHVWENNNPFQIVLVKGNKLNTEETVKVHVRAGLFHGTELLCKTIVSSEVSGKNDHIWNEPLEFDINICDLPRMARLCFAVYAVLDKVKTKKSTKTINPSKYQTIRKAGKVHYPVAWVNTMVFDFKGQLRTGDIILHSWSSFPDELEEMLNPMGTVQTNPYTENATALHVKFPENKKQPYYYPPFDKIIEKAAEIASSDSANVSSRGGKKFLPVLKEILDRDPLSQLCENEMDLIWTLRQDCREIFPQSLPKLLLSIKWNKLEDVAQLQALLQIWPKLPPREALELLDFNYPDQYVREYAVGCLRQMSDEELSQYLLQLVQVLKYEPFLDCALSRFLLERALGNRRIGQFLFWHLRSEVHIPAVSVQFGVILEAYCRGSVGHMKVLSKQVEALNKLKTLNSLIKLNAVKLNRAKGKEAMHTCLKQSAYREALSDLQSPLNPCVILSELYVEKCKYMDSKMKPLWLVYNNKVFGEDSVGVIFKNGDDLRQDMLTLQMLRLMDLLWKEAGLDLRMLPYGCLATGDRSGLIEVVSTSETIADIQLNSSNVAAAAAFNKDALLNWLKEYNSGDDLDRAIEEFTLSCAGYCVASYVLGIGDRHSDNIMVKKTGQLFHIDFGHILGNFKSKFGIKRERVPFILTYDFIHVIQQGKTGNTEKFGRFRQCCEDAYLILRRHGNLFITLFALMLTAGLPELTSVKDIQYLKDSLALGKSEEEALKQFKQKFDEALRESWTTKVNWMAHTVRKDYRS

Some of the results follow. This is a noisy data set.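 Many melting curves are irregular; where none melted, Tm was taken as 64 °C.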

Compound in one experiment: CCc1cnccc1C(=O)Nc1cc2c(cc1F)NC(=O)CC2
In words: melting temperature shift (DMSO Tm minus MBE1-treated Tm) in cellular thermal proteome profiling; higher = less thermal stabilization by MBE1 (negative = stabilized by MBE1). Particulars: A375; MBE1 concentration: 100 nM.
Consider UniProt P43251, for which the melting temperature shift was -2.43 °C.
On the same count and under the same terms, then ST13 (UniProt P50502), with -0.511 °C; and HELZ (UniProt P42694), with -1.43 °C; and UniProt P45984, with -0.0671 °C.
On the same count and under the same terms, then VASP (UniProt P50552), with 0.666 °C; and MTIF2 (UniProt P46199), with -0.243 °C; and RAB7A (UniProt P51149), with -2.39 °C.
Regarding PSMB3 (UniProt P49720), the melting temperature shift is -4.1 °C.
Still for that read-out and setting: to CAMLG (UniProt P49069) belongs -2.2 °C.
On to HTT (UniProt P42858), for which the melting temperature shift was determined as 0.867 °C.
Still for that read-out and setting: then CCT4 (UniProt P50991), with -0.786 °C; and UniProt P48029, with -2.06 °C.
Consider RANBP1 (UniProt P43487), for which the melting temperature shift is -0.714 °C.
For UniProt P46734, the melting temperature shift was -0.0122 °C.
On the same count and under the same terms, then HINT1 (UniProt P49773), with 0.879 °C; and ID1 (UniProt P41134), with -5.17 °C.
Still for that read-out and setting: then MATK (UniProt P42679), with 0.287 °C; and UniProt P42166, with -0.506 °C; and CAP2 (UniProt P40123), with -0.0604 °C.
For MRE11A (UniProt P49959), the melting temperature shift is -1.81 °C.
The same measure, in the same setting: then PREP (UniProt P48147), with -0.621 °C; and PHKA2 (UniProt P46019), with 1.17 °C; and EIF2B2 (UniProt P49770), with -0.107 °C.
Take UniProt P38432: the melting temperature shift is -0.826 °C.
Same read-out and setting: then UniProt P51157, with 1.35 °C; and BUD31 (UniProt P41223), with 0.318 °C; and DUSP3 (UniProt P51452), with 0.629 °C.
On to UniProt P51178, for which the melting temperature shift is -0.238 °C.
Same read-out and setting: to UniProt P47897 belongs -0.828 °C; to RPL5 (UniProt P46777), -0.623 °C.
The same measure, in the same setting: then NDUFV1 (UniProt P49821), with -0.51 °C.
Still for that read-out and setting: then PIK3CB (UniProt P42338), with 1.15 °C.
For the target TSC2 (UniProt P49815), the melting temperature shift is -1 °C.
Consider RPS9 (UniProt P46781), for which the melting temperature shift is -0.0427 °C.
Same read-out and setting: then UniProt P42677, with 0.0794 °C.
On the same count and under the same terms, to CRAT (UniProt P43155) belongs -0.765 °C; to FEN1 (UniProt P39748), -0.588 °C; to MKI67 (UniProt P46013), -0.513 °C.

The same experiment, now with this note: A375; MBE1 concentration: 1 uM.
Turning to UniProt P43251, the melting temperature shift is -2.77 °C.
On the same count and under the same terms, to ST13 (UniProt P50502) belongs -0.226 °C; to HELZ (UniProt P42694), -1.52 °C; to UniProt P45984, -0.55 °C.
Turning to VASP (UniProt P50552), the melting temperature shift is -0.0733 °C.
The same measure, in the same setting: to MTIF2 (UniProt P46199) belongs -0.352 °C.
Still for that read-out and setting: to RAB7A (UniProt P51149) belongs -1.96 °C; to PSMB3 (UniProt P49720), -2.65 °C.
With CAMLG (UniProt P49069), the melting temperature shift was -2.33 °C.
With HTT (UniProt P42858), the melting temperature shift stood at 0.0794 °C.
The same measure, in the same setting: then CCT4 (UniProt P50991), with -0.749 °C; and UniProt P48029, with -1.14 °C; and RANBP1 (UniProt P43487), with -5.21 °C.
The same measure, in the same setting: then UniProt P46734, with -0.598 °C; and HINT1 (UniProt P49773), with -2.53 °C; and ID1 (UniProt P41134), with -2.07 °C.
Same read-out and setting: to MATK (UniProt P42679) belongs -0.873 °C; to UniProt P42166, -0.141 °C; to CAP2 (UniProt P40123), 0.00611 °C.
On to MRE11A (UniProt P49959), for which the melting temperature shift was determined as 1.18 °C.
Same read-out and setting: to PREP (UniProt P48147) belongs -0.461 °C.
Turning to PHKA2 (UniProt P46019), the melting temperature shift is -0.22 °C.
Same read-out and setting: then EIF2B2 (UniProt P49770), with -0.0469 °C.
On the same count and under the same terms, then UniProt P38432, with -0.275 °C; and UniProt P51157, with -0.934 °C; and BUD31 (UniProt P41223), with 0.647 °C.
In the case of DUSP3 (UniProt P51452), the melting temperature shift is -0.495 °C.
Still for that read-out and setting: then UniProt P51178, with 0.128 °C; and UniProt P47897, with -0.127 °C.
On to RPL5 (UniProt P46777), for which the melting temperature shift stood at 0.855 °C.
As to NDUFV1 (UniProt P49821), the melting temperature shift amounted to 0.711 °C.
Same read-out and setting: to PIK3CB (UniProt P42338) belongs 0.867 °C; to TSC2 (UniProt P49815), -0.282 °C.
Still for that read-out and setting: to RPS9 (UniProt P46781) belongs 0.189 °C; to UniProt P42677, 0.00611 °C; to CRAT (UniProt P43155), -0.141 °C.
Still for that read-out and setting: to FEN1 (UniProt P39748) belongs -0.659 °C; to MKI67 (UniProt P46013), -0.673 °C.
